For the data set, the system named is recombinant human full length HGF. As to the kind of experiment: Sequencing of clones after MACS/FACS sorting of bacterial display X15 library. As to conditions: after 1 MACS and 13 FACS cycles; for Frequency: number of sequenced bacteria clones carrying the sequence; for Percentage: share of sequenced clones.

Consider ALQQAWGWWDCYGWR [Clone 15], for which the Frequency was 1 and the Percentage is 2.0%.

As for AYMMRDLWEYNWTSG [Clone 7], the Frequency is listed as 2 and the Percentage is on record as 4.1%.

Regarding GTARLLWRPVVTYDC [Clone 12], the Frequency stood at 1 and the Percentage is listed as 2.0%.

Turning to KGYGRYWWDCGDNFW [Clone 8], the Frequency came to 1 and the Percentage stood at 2.0%.

For the sequence MEVERRWPWWHANYW [Clone 6], the Frequency is 3 and the Percentage was determined as 6.1%.

In the case of MGGGSWLYVGDPDCW [Clone 13], the Frequency turned out to be 1 and the Percentage was found to be 2.0%.

Regarding MYNVRLNDWYWCGWD [Clone 16], the Frequency is reported as 1 and the Percentage stood at 2.0%.

Consider QRCGMVRFNDWQHPM [Clone 11], for which the Frequency came out at 1 and the Percentage turned out to be 2.0%.

As for RANWFCIEDSVYCGK [Clone 4], the Frequency is given as 3 and the Percentage is given as 6.1%.

On to RSSMWDCYYFDCCNW [Clone 14], for which the Frequency was found to be 1 and the Percentage is listed as 2.0%.

On to SARKLGWCPYWSSDC [Clone 5], for which the Frequency turned out to be 3 and the Percentage is 6.1%.

Turning to SPWWSVYETQSCAVR [Clone 17], the Frequency is on record as 1 and the Percentage worked out at 2.0%.

As to TLYEVDLREWCAGIVG [HGP-2], the Frequency was determined as 7 and the Percentage turned out to be 14.3%.

Turning to TYFTWWELSPGCEEH [HGP-3], the Frequency was determined as 6 and the Percentage is given as 12.2%.

In the case of YRWGMGGYEYWCNRG [Clone 10], the Frequency stood at 1 and the Percentage came to 2.0%.

For the sequence YWPGCQEWGNKWWGG [Clone 9], the Frequency worked out at 1 and the Percentage is recorded as 2.0%.

With YWYGWGSGWSGCDHA [Clone 18], the Frequency is 1 and the Percentage stood at 2.0%.

These data come from publication PMC4745783, “The HGF inhibitory peptide HGP-1 displays promising in vitro and in vivo efficacy for targeted cancer therapy” (Oncotarget, 2015).
